# Data from the supplement of paper PMC8728848.
# The list shows a part of the results.
# What was measured:
# Test in all cases: glycan array binding signal (z-score within array); higher = stronger binding
# Conditions in all cases: glycan notation: IUPAC condensed, linker removed
# [1] = molecular target: Gal(b1-4)GlcNAc(b1-3)Gal(b1-4)GlcNAc(b1-3)Gal(b1-4)GlcNAc(b1-2)Man(a1-3)[Gal(b1-4)GlcNAc(b1-3)Gal(b1-4)GlcNAc(b1-3)Gal(b1-4)GlcNAc(b1-2)Man(a1-6)]Man(b1-4)GlcNAc(b1-4)GlcNAc
# Summary of the method: (§1)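 Glycan array binding is given as a within-array Z-score, which can be read as non-binding when negative. The arrays, 3228 of them, came from the Consortium for Functional Glycomics database and were retained only where the protein sequence was available. Z-scores were averaged across arrays of the same protein sequence at different concentrations or buffers and across linkers.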
# [2] = molecular target: Gal(b1-4)GlcNAc(b1-3)Gal(b1-4)GlcNAc(b1-3)Gal(b1-4)GlcNAc(b1-2)Man(a1-3)[Gal(b1-4)GlcNAc(b1-3)Gal(b1-4)GlcNAc(b1-3)Gal(b1-4)GlcNAc(b1-2)Man(a1-6)]Man(b1-4)GlcNAc(b1-4)[Fuc(a1-6)]GlcNAc
# Summary of the method: as §1
# [3] = molecular target: Gal(b1-4)GlcNAc(b1-3)Gal(b1-4)GlcNAc(b1-3)Gal(b1-4)GlcNAc(b1-2)[Gal(b1-4)GlcNAc(b1-3)Gal(b1-4)GlcNAc(b1-3)Gal(b1-4)GlcNAc(b1-6)]Man(a1-6)[Gal(b1-4)GlcNAc(b1-3)Gal(b1-4)GlcNAc(b1-3)Gal(b1-4)GlcNAc(b1-2)Man(a1-3)]Man(b1-4)GlcNAc(b1-4)[Fuc(a1-6)]GlcNAc
# Summary of the method: as §1
# [4] = molecular target: Gal(b1-4)GlcNAc(b1-3)Gal(b1-4)GlcNAc(b1-3)Gal(b1-4)GlcNAc(b1-3)Gal(b1-4)GlcNAc(b1-2)Man(a1-3)[Gal(b1-4)GlcNAc(b1-3)Gal(b1-4)GlcNAc(b1-3)Gal(b1-4)GlcNAc(b1-3)Gal(b1-4)GlcNAc(b1-2)Man(a1-6)]Man(b1-4)GlcNAc(b1-4)GlcNAc
# Summary of the method: as §1
# [5] = molecular target: Gal(b1-4)GlcNAc(b1-3)Gal(b1-4)GlcNAc(b1-3)Gal(b1-4)GlcNAc(b1-3)Gal(b1-4)GlcNAc(b1-2)Man(a1-3)[Gal(b1-4)GlcNAc(b1-3)Gal(b1-4)GlcNAc(b1-3)Gal(b1-4)GlcNAc(b1-3)Gal(b1-4)GlcNAc(b1-2)Man(a1-6)]Man(b1-4)GlcNAc(b1-4)[Fuc(a1-6)]GlcNAc
# Summary of the method: as §1
# [6] = molecular target: Gal(b1-4)GlcNAc(b1-3)Gal(b1-4)GlcNAc(b1-3)Gal(b1-4)GlcNAc(b1-3)Gal(b1-4)GlcNAc(b1-2)[Gal(b1-4)GlcNAc(b1-3)Gal(b1-4)GlcNAc(b1-3)Gal(b1-4)GlcNAc(b1-3)Gal(b1-4)GlcNAc(b1-6)]Man(a1-6)[Gal(b1-4)GlcNAc(b1-3)Gal(b1-4)GlcNAc(b1-3)Gal(b1-4)GlcNAc(b1-3)Gal(b1-4)GlcNAc(b1-2)Man(a1-3)]Man(b1-4)GlcNAc(b1-4)[Fuc(a1-6)]GlcNAc
# Summary of the method: as §1
# [7] = molecular target: Gal(b1-4)GlcNAc(b1-3)Gal(b1-4)GlcNAc(b1-3)Gal(b1-4)GlcNAc(b1-3)Gal(b1-4)GlcNAc(b1-3)Gal(b1-4)GlcNAc(b1-2)Man(a1-3)[Gal(b1-4)GlcNAc(b1-3)Gal(b1-4)GlcNAc(b1-3)Gal(b1-4)GlcNAc(b1-3)Gal(b1-4)GlcNAc(b1-3)Gal(b1-4)GlcNAc(b1-2)Man(a1-6)]Man(b1-4)GlcNAc(b1-4)GlcNAc
# Summary of the method: as §1
# [8] = molecular target: Gal(b1-4)GlcNAc(b1-3)Gal(b1-4)GlcNAc(b1-3)Gal(b1-4)GlcNAc(b1-3)Gal(b1-4)GlcNAc(b1-3)Gal(b1-4)GlcNAc(b1-2)Man(a1-3)[Gal(b1-4)GlcNAc(b1-3)Gal(b1-4)GlcNAc(b1-3)Gal(b1-4)GlcNAc(b1-3)Gal(b1-4)GlcNAc(b1-3)Gal(b1-4)GlcNAc(b1-2)Man(a1-6)]Man(b1-4)GlcNAc(b1-4)[Fuc(a1-6)]GlcNAc
# Summary of the method: as §1
# [9] = molecular target: Gal(b1-4)GlcNAc(b1-3)Gal(b1-4)GlcNAc(b1-3)Gal(b1-4)GlcNAc(b1-3)Gal(b1-4)GlcNAc(b1-3)Gal(b1-4)GlcNAc(b1-2)[Gal(b1-4)GlcNAc(b1-3)Gal(b1-4)GlcNAc(b1-3)Gal(b1-4)GlcNAc(b1-3)Gal(b1-4)GlcNAc(b1-3)Gal(b1-4)GlcNAc(b1-6)]Man(a1-6)[Gal(b1-4)GlcNAc(b1-3)Gal(b1-4)GlcNAc(b1-3)Gal(b1-4)GlcNAc(b1-3)Gal(b1-4)GlcNAc(b1-3)Gal(b1-4)GlcNAc(b1-2)Man(a1-3)]Man(b1-4)GlcNAc(b1-4)[Fuc(a1-6)]GlcNAc
# Summary of the method: as §1
# [10] = molecular target: Gal(b1-4)GlcNAc(b1-3)Gal(b1-4)GlcNAc(b1-3)Gal(b1-4)GlcNAc(b1-3)Gal(b1-4)GlcNAc(b1-3)Gal(b1-4)GlcNAc(b1-3)Gal(b1-4)GlcNAc(b1-2)Man(a1-3)[Gal(b1-4)GlcNAc(b1-3)Gal(b1-4)GlcNAc(b1-3)Gal(b1-4)GlcNAc(b1-3)Gal(b1-4)GlcNAc(b1-3)Gal(b1-4)GlcNAc(b1-3)Gal(b1-4)GlcNAc(b1-2)Man(a1-6)]Man(b1-4)GlcNAc(b1-4)GlcNAc
# Summary of the method: as §1
# [11] = molecular target: Gal(b1-4)GlcNAc(b1-3)Gal(b1-4)GlcNAc(b1-3)GalNAc
# Summary of the method: as §1
# [12] = molecular target: Gal(b1-4)GlcNAc(b1-3)Gal(b1-4)GlcNAc(b1-3)[Gal(b1-4)GlcNAc(b1-3)Gal(b1-4)GlcNAc(b1-6)]GalNAc
# Summary of the method: as §1
# [13] = molecular target: Gal(b1-4)GlcNAc(b1-3)Gal(b1-4)GlcNAc(b1-6)[Gal(b1-3)]GalNAc
# Summary of the method: as §1
# [14] = molecular target: Gal(b1-4)GlcNAc(b1-3)Gal(b1-4)[Fuc(a1-3)]GlcNAc(b1-3)Gal(b1-4)[Fuc(a1-3)]GlcNAc
# Summary of the method: as §1
# [15] = molecular target: Gal(b1-4)GlcNAc(b1-3)GalNAc
# Summary of the method: as §1
# [16] = molecular target: Gal(b1-4)GlcNAc(b1-3)[Fuc(a1-3)GlcNAc(b1-6)]Gal(b1-4)Glc
# Summary of the method: as §1
# [17] = molecular target: Gal(b1-4)GlcNAc(b1-3)[Gal(b1-4)GlcNAc(b1-6)]Gal(b1-4)GlcNAc
# Summary of the method: as §1
# [18] = molecular target: Gal(b1-4)GlcNAc(b1-3)[GlcNAc(b1-6)]Gal(b1-4)GlcNAc
# Summary of the method: as §1
# [19] = molecular target: Gal(b1-4)GlcNAc(b1-6)Gal(b1-4)GlcNAc
# Summary of the method: as §1
binder,measurement,setting,value
RobpsCRA (Robinia pseudoacacia) (protein) IKGGYWYSGSGLAVSDINPSHFTHLFCAFADLDPNTNKLTISSSNAAAFSTFTQTVRAKNPSVKTLLSIGGGGGRALAAVFANMASQASRRKSFIDSSIQLARRNNFHGLDLDWEYPSSDIDKTNFASLIREWRAAVATESSTSGTPALLLSAAVGGSDQITPLKYYPGEAIANNLDWVNVMTYDLYTSDSYPTLTQPPAPLFYPRGIFSADEGITKWIQSGVPESKLALGLPFYGFKWRLSDPNNHGLFAPATQGLGAVKYKDIVNTGGQVEFDSTYVTNYCFKGTDWYGYDDTQSISAKVAYAKQRGLFGYFAWHIEQDSNWALS,glycan array binding signal (z-score),[1],-0.055
same,glycan array binding signal (z-score),[2],0.688
same,glycan array binding signal (z-score),[3],0.384
same,glycan array binding signal (z-score),[4],0.541
same,glycan array binding signal (z-score),[5],-0.68
same,glycan array binding signal (z-score),[6],0.355
same,glycan array binding signal (z-score),[7],-0.025
same,glycan array binding signal (z-score),[8],0.466
same,glycan array binding signal (z-score),[9],0.64
same,glycan array binding signal (z-score),[10],2.18
same,glycan array binding signal (z-score),[11],0.592
same,glycan array binding signal (z-score),[12],0.145
same,glycan array binding signal (z-score),[13],-0.285
same,glycan array binding signal (z-score),[14],-0.287
same,glycan array binding signal (z-score),[15],0.32
same,glycan array binding signal (z-score),[16],-0.551
same,glycan array binding signal (z-score),[17],-0.121
same,glycan array binding signal (z-score),[18],-0.112
same,glycan array binding signal (z-score),[19],-0.681

# No new results follow: an excerpt of the list.
binder,measurement,setting,value
RobpsCRA (Robinia pseudoacacia) (protein) IKGGYWYSGSGLAVSDINPSHFTHLFCAFADLDPNTNKLTISSSNAAAFSTFTQTVRAKNPSVKTLLSIGGGGGRALAAVFANMASQASRRKSFIDSSIQLARRNNFHGLDLDWEYPSSDIDKTNFASLIREWRAAVATESSTSGTPALLLSAAVGGSDQITPLKYYPGEAIANNLDWVNVMTYDLYTSDSYPTLTQPPAPLFYPRGIFSADEGITKWIQSGVPESKLALGLPFYGFKWRLSDPNNHGLFAPATQGLGAVKYKDIVNTGGQVEFDSTYVTNYCFKGTDWYGYDDTQSISAKVAYAKQRGLFGYFAWHIEQDSNWALS,glycan array binding signal (z-score),[14],-0.287
same,glycan array binding signal (z-score),[15],0.32
